The values below come from US9884122B2 (Philochem AG, priority 2014, dated 2018).

For some assays here: Strings that start with PEPTIDE1 are HELM notation: dots part the residues, brackets hold end groups and non-standard residues.

A short description of data set [1]: general procedure: Fmoc solid-phase peptide synthesis; Fmoc-Cys(Trt) Tentagel; HBTU/HOBt/DIPEA. Particulars: whole synthesis, scale 0.415 mmol.
Data set [2] can be described thus: general procedure: Fmoc solid-phase peptide synthesis; pre-loaded Fmoc-Cys(Trt) on Tentagel resin (RAPP Polymere); HBTU/HOBt/DIPEA. The settings on record: conjugation step, determined by absorbance at 750 nm.

For CysAspArgAsp-Linker-AAZ, in data set [1], the isolated mass is 135 mg and the isolated yield was 33%.
For the substance “PEPTIDE1{[AAZtrzVal].D.D.K.[PEG2N-IRDye750]}|PEPTIDE2{[AAZtrzVal].D.D}$PEPTIDE1,PEPTIDE2,4:R3-3:R2$$$V2.0”, the conjugation yield in data set [2] was determined as 17%.
In data set [1], CysAspArgAsp-Linker-COOH gave an isolated mass of 116 mg and an isolated yield of 43%.
